The full ranking holds about 33,000 sequences; the median of “E-score (-0.5 to 0.5)” is about -0.0014, and the highest 2% start at about 0.25. This is one part of the list.
target: T1, Cad1 (UniProt P24813); assay: PBM E-score (8-mer binding enrichment) (E-score (-0.5 to 0.5)); higher = stronger / more preferred TF binding; conditions: protein concentration: 100 nM; construct: GST-full length
T1 sequence: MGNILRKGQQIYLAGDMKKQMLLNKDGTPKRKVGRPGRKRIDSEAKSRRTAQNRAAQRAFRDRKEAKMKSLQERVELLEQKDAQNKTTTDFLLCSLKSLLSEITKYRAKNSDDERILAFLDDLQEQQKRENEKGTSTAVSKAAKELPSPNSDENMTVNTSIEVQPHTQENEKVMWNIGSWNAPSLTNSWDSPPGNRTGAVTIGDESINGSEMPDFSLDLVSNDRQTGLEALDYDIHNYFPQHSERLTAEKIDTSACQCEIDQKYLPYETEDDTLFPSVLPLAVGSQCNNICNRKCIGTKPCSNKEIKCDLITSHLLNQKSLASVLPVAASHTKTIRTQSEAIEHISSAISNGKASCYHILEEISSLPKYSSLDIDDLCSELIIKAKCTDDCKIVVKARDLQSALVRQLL
Method: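 Universal 'all 10-mer' protein binding microarrays (Agilent AMADID 015681) probed with GST-tagged S. cerevisiae TFs (full-length or DBD) made by in vitro transcription/translation (PURExpress), about 100-200 nM. Bound TF was detected with fluorescent anti-GST. Each ungapped 8-mer (which stands for itself and its reverse complement) is scored by the PBM enrichment score (E-score), a modified Wilcoxon-Mann-Whitney statistic from -0.5 to +0.5, computed with the Universal PBM Analysis Suite. Scale: above 0.35 generally sequence-specific binding.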

Row | Sequence | PBM E-score
1 | ATCTTCAA | 0.0779
2 | AATATGAG | 0.0594
3 | AAGGAATG | -0.0319
4 | ACCTCAGC | -0.00107
5 | CTTGCCGA | 9e-05
6 | ATAACCTA | -0.082
7 | CCGCACCG | 0.00335
8 | ATTAGCTC | -0.0317
9 | ACACGCTC | 0.119
10 | GGGGCGCA | -0.139
11 | ACATTGAA | 0.168
12 | ATCTAGCC | -0.0552
13 | CAGACTCG | -0.105
14 | GGGCCTGA | -0.228
15 | CACTCGCC | 0.0273
16 | AGGGCATG | -0.0681
17 | AGCCTACA | -0.0553
18 | ACCGTGAA | 0.0213
19 | AGGTATAT | 0.126
20 | ACAAGCCT | 0.0178
21 | GGTAGCTA | -0.0538
22 | TAGTGACA | 0.144
23 | AGATAAGG | -0.165
24 | AGGGGATC | -0.178
25 | ATTGTCAG | 0.306

Row | Sequence | PBM E-score
26 | AGCGACCC | -0.18
27 | GTCTGCAA | -0.0949
28 | AGCCGCAG | -0.121
29 | GAGAGACA | -0.222
30 | CGTAATCC | 0.191
31 | ACTGTACC | -0.0695
32 | ACGCTTAG | 0.0453
33 | AATCGTCT | 0.00483
34 | AGACTACA | -0.0813
35 | CAGGTTCG | -0.195
36 | AGTGTATG | -0.0227
37 | AGGCGTCA | -0.163
38 | TTAAGTAA | 0.168
39 | CTAAGGAC | 0.074
40 | ATTTATGC | -0.0649
41 | GACAAAAC | 0.0998
42 | CGGGGACC | -0.0966
43 | AAGCATTC | 0.0284
44 | ATTCCGAG | 0.164
45 | AATACGTC | 0.0601
46 | CTTACGCA | 0.0493
47 | CGGAGGCC | -0.096
48 | CACTGGCA | -0.0733
49 | TCATACAA | 0.0937
50 | CCAGCTCG | 0.00428

Row | Sequence | PBM E-score
51 | ATATTCTG | 0.166
52 | CTATTGAA | 0.0338
53 | ACTTGTCC | 0.0559
54 | ATTACATC | 0.209
55 | ATTAGCGA | 0.0341
56 | CTAAGGTA | 0.0915
57 | AAATGCTA | 0.0591
58 | AACGGGCA | -0.125
59 | AGAATATA | 0.163
60 | AATGCATC | 0.127
61 | GGCCGACC | -0.209
62 | TATGCAAA | 0.00688
63 | ACGATTCA | 0.00026
64 | AGGGTAAT | -0.0176
65 | CGCTCCCC | -0.329
66 | TCCTCAAA | -0.166
67 | ATATATGG | 0.162
68 | ACCATATC | -0.0954
69 | AGGTTAAA | -0.0538
70 | CGAGGGCG | -0.11
71 | ACACAGAC | 0.223
72 | GCAGTTCC | -0.0503
73 | AGTACATA | 0.104
74 | ATTCTCAA | 0.0851
75 | CAGCTTGA | -0.0591

Row | Sequence | PBM E-score
76 | AGTCTAAG | 0.118
77 | CTAGTTGA | 0.144
78 | CCCTGTAA | 0.0594
79 | CCTCGTCA | 0.121
80 | ACTCAGTG | -0.154
81 | AATTAGAG | 0.0346
82 | AAAAAGCT | -0.148
83 | CTCACTAC | 0.126
84 | CTGCTGCA | 0.00759
85 | CGCAGAAC | 0.164
86 | CATTTCGG | -0.16
87 | GAAACACA | 0.148
88 | GACCCATC | -0.134
89 | CAGCGACA | -0.195
90 | CGCGGAAA | 0.073
91 | ACGGATAA | 0.0973
92 | CCACTTCC | 0.0518
93 | AGTTTGAC | 0.0385
94 | ATCAAGAC | 0.128
95 | AACTTTGA | 0.041
96 | AGGAAAGA | -0.168
97 | ACCCGTCG | -0.185
98 | CGCATCTC | -0.014
99 | AGCACTCG | -0.0211
100 | AGTCCTGG | -0.164

Row | Sequence | PBM E-score
101 | CCATCCTC | -0.233
102 | TCCTCGCA | -0.189
103 | CAAAGATG | -0.0448
104 | ATGGAAAG | 0.00711
105 | GCAACCGC | 0.0144
106 | ACGCAAGA | 0.202
107 | GATTGGAA | -0.0305
108 | GATACTAA | 0.115
109 | AAGTCATA | 0.0807
110 | GTCTCACA | -0.103
111 | AGAGGGGA | -0.244
112 | AACCGGCG | 0.145
113 | CCGTTTCA | 0.00431
114 | ACAGGTTG | -0.0536
115 | CCACGCTA | -0.0319
116 | CAGTGTCA | -0.0188
117 | TACATAGA | 0.0928
118 | AGCCTCCG | -0.0822
119 | CTCTACGA | -0.0698
120 | AAGGGACC | -0.0911
121 | AACGAAAT | 0.303
122 | AGGCAACT | 0.0575
123 | TATCCTCA | 0.0395
124 | AGAATGGC | 0.00752
125 | CAACCGAA | 0.168

Part of the list above, in markdown:

| Row | Sequence | PBM E-score |
| --- | --- | --- |
| 89 | CAGCGACA | -0.195 |
| 90 | CGCGGAAA | 0.073 |
| 91 | ACGGATAA | 0.0973 |
| 93 | AGTTTGAC | 0.0385 |
| 94 | ATCAAGAC | 0.128 |
| 95 | AACTTTGA | 0.041 |
| 96 | AGGAAAGA | -0.168 |
| 97 | ACCCGTCG | -0.185 |
| 98 | CGCATCTC | -0.014 |
| 99 | AGCACTCG | -0.0211 |
| 100 | AGTCCTGG | -0.164 |
| 101 | CCATCCTC | -0.233 |
| 102 | TCCTCGCA | -0.189 |
| 103 | CAAAGATG | -0.0448 |
| 104 | ATGGAAAG | 0.00711 |
| 105 | GCAACCGC | 0.0144 |
| 106 | ACGCAAGA | 0.202 |
| 107 | GATTGGAA | -0.0305 |
| 108 | GATACTAA | 0.115 |
| 109 | AAGTCATA | 0.0807 |
| 110 | GTCTCACA | -0.103 |
| 111 | AGAGGGGA | -0.244 |
| 113 | CCGTTTCA | 0.00431 |
| 114 | ACAGGTTG | -0.0536 |
| 115 | CCACGCTA | -0.0319 |
| 116 | CAGTGTCA | -0.0188 |
| 117 | TACATAGA | 0.0928 |
| 118 | AGCCTCCG | -0.0822 |
| 119 | CTCTACGA | -0.0698 |
| 121 | AACGAAAT | 0.303 |
| 122 | AGGCAACT | 0.0575 |
| 123 | TATCCTCA | 0.0395 |
| 124 | AGAATGGC | 0.00752 |
| 125 | CAACCGAA | 0.168 |

Further records follow.

Row | Sequence | PBM E-score
126 | ACAACACA | 0.0813
127 | GCGGGTAC | 0.0345
128 | ACGGTAAG | 0.00529
129 | ACAGCCAT | -0.0707
130 | AAGAAAGC | -0.0475
131 | AACTCCGT | 0.0805
132 | AGTTCGAT | -0.0629
133 | AATGGGGG | -0.423
134 | CTGGCTCC | -0.25
135 | AGAGCCTC | -0.247
136 | CAGAGTAA | -0.24
137 | ACGGGAAG | -0.148
138 | GTTCCTTA | 0.0781
139 | CAGAGATA | 0.109
140 | AATGCGTC | 0.0515
141 | CGGCTACC | 0.00621
142 | AGAGGCAG | -0.126
143 | AATAGTGA | 0.174
144 | AGCACGTG | 0.179
145 | AGGGAGTG | -0.287
146 | ACTAGCCC | -0.0332
147 | TCATCGCA | 0.0219
148 | CCAGGAAG | -0.131
149 | GCTAGTAC | -0.0457
150 | AACTGTAT | 0.0468

Row | Sequence | PBM E-score
151 | CCTCATAG | -0.0698
152 | ATACGCCG | -0.161
153 | ATACCTAA | 0.227
154 | TATAAATA | 0.25
155 | GGGTTTAC | -0.0872
156 | CTGAGACC | -0.19
157 | GATCTCAA | 0.114
158 | ACTGGCAC | 0.0167
159 | AGTGCCAA | -0.105
160 | GGATGGCC | -0.0942
161 | AGCGAGTA | 0.148
162 | GCTCATGA | 0.0686
163 | GAGGGGTA | -0.148
164 | AGAGCGAA | -0.108
165 | CATTAGAC | -0.187
166 | AAGAAATC | -0.034
167 | GAGAATAA | 0.16
168 | CCCCGTGA | -0.156
169 | CGCAGGTC | -0.188
170 | GGATAAAC | 0.167
171 | AAACTAGC | -0.0196
172 | AAAGCACA | 0.0452

— the supplement of paper PMC3334620
